# From PubChem BioAssay AID504444 (National Center for Advancing Translational Sciences (NCATS), 2011)
# The whole screen tested about 360,000 compounds, of which about 7,500 (2.1%) were called active. Inconclusive means that the source gave no clear call. Such entries were picked first, then a sample of the others. Calls follow the shape of the dose curve; as a rule, active = well fitted inhibition curve with a large enough effect; inconclusive = small, poorly fitted or top-dose-only effect, or effect the other way; inactive = flat fitted curve, though single readings scatter. Potencies beside an inconclusive call are fits to weak or partial responses and may not hold up.
# Assay: Nrf2 qHTS screen for inhibitors; also: nearly all actives have a fitted effect of over 60% in size
# Conditions: A549 ARE-Fluc reporter, luciferase luminescence, 18-24 h; activity change, negative = inhibition: at 46 µM (top of the series)
# Procedure, shortened: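 Two sequential reads on A549 ARE_Fluc cells exposed to compound for 18-24 h: a CellTiter-Fluor fluorescence read for viability, then a luciferase luminescence read for Nrf2/ARE activity.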
# % is scaled to controls: 0 for no effect and ±100 for the full control effect; potency is read from the fitted curve at half-maximal effect.
SMILES,Potency,"activity change, negative = inhibition"
COc1ccc(C(=O)Nc2cc(C(F)(F)F)ccc2Cl)cc1OC,"inconclusive: 3.26 µM [falling, full curve]",
CC(=O)N(c1ccc2ccccc2c1)C1SC(=O)N(c2cccc(C)c2)C1=O (stereo unspecified),"inconclusive: 18.4 µM [activator, single point]",
O=C(c1ccc([N+](=O)[O-])s1)N1CCN(c2ccccc2)CC1,active: 20.6 µM,
COc1ccc(NC(=O)Cn2c(=O)n(-c3ccc(CC(=O)NCc4ccco4)cc3)c(=O)c3ccccc32)cc1,"inconclusive: 23.1 µM [falling, partial curve]",
CC(=O)c1cccc(NC(=O)CN2CCN(S(=O)(=O)/C=C/c3ccccc3)CC2)c1,"inconclusive: 0.0046 µM [falling, full curve, poor fit]",
O=C(CCCSc1ccccc1)Nc1nc(-c2ccccn2)cs1,"inconclusive: 29.1 µM [falling, single point]",
Cn1nnnc1SCC(=O)Nc1ccc(S(=O)(=O)N2CCOCC2)cc1,,inactive: -3.24%
CCOC(=O)c1cc2c(ccc3ccccc32)oc1=O,"inconclusive: 29.1 µM [falling, single point]",
O=C(Nc1cc2c(cc1Cl)OCCCO2)c1ccccc1,"inconclusive: 23.1 µM [activator, partial curve]",
Cc1ccc(N2CCN(C(=O)C3CCCN(c4ncnc5c4nc4n5CCCCC4)C3)CC2)c(C)c1 (stereo unspecified),,inactive: 0%
CCn1cc(C(=O)N2CCc3ccccc32)c(=O)c2cc(S(=O)(=O)N3CC(C)CC(C)C3)ccc21 (stereo unspecified),"inconclusive: 11.6 µM [falling, partial curve, poor fit]",
COc1ccc(-c2csc(NC(=O)c3ccc(S(=O)(=O)N4CCc5ccccc5C4)cc3)n2)c(OC)c1,"inconclusive: 4.61 µM [falling, full curve]",
Cc1ccc(C)c(OCCC(=O)Nc2cccc(S(=O)(=O)N3CCCCC3)c2)c1,"inconclusive: 23.1 µM [falling, single point]",
O=C1/C(=C/c2cccs2)COc2ccccc21,,inactive: 34.2%
COc1ccccc1NC(c1cccnc1)c1ccc2cccnc2c1O (stereo unspecified),,inactive: -0.316%
CN1C2=CC=CC=CC2=[N+](C)C12C=CC(=[N+]([O-])[O-])C=C2[N+](=O)[O-] (stereo unspecified),active: 23.1 µM,
CCOCCCNS(=O)(=O)c1ccc(NC(=O)N2c3ccccc3Sc3ccccc32)cc1,"inconclusive: 23.1 µM [falling, single point]",
CCOc1ccc(CNC(=O)Cn2cc3c(n2)-c2c(oc(C(=O)N4CCCC4)c2C)CC3)cc1,"inconclusive: 18.4 µM [falling, single point]",
COc1ccc(OC)c(/C=C/C(=O)Nc2cccc(S(=O)(=O)N3CCCC3)c2)c1,active: 13 µM,
Cc1nc(SCC(=O)Nc2ccc(S(=O)(=O)N3CCOCC3)cc2)c2c(C)c(C)sc2n1,active: 11.6 µM,
O=C(Cc1ccc(Cl)cc1)NC(=S)Nc1ccccc1N1CCOCC1,"inconclusive: 29.1 µM [falling, single point]",
Nc1cc(S(=O)(=O)N2CCOCC2)ccc1N1CCCCC1,"inconclusive: 20.6 µM [falling, single point]",

SMILES,Potency,"activity change, negative = inhibition"
CCCC1=Nc2cc(C(=O)NCC(C)c3ccccc3)ccc2Sc2ccccc21 (stereo unspecified),"inconclusive: 18.4 µM [falling, single point]",
CCOC(=O)N1CCN(c2nc3ccc(C(=O)c4ccccc4)cc3n3cnnc23)CC1,"inconclusive: 13 µM [falling, partial curve, poor fit]",
Cc1nc2c3ccccc3n(Cc3ccccc3F)c2s1,"inconclusive: 6.51 µM [falling, single point]",
CN(C)c1ccc(/C=C(/NC(=O)c2ccccc2Cl)C(=O)NCCN2CCOCC2)cc1,"inconclusive: 25.9 µM [activator, single point]",
Cc1ccc(C2c3c(-c4ccccc4O)n[nH]c3C(=O)N2CCc2ccccc2)cc1 (stereo unspecified),"inconclusive: 16.4 µM [falling, single point]",
CC1CCCN(C(=O)CCS(=O)(=O)c2cc3c(cc2Cl)NC(=O)CO3)C1 (stereo unspecified),inactive,
Cc1c(C(=O)Nc2nc3ccccc3[nH]2)oc2c(Cl)cccc12,"inconclusive: 4.61 µM [activator, full curve]",
C#CCn1c2ccccc2c2nc3ccccc3nc21,"inconclusive: 9.2 µM [activator, partial curve, poor fit]",
COc1ccc(NC(=O)CSc2nc(-c3ccc(OC)c(OC)c3)[nH]c2-c2ccc(C)cc2)cc1,,inactive: -4.41%
Cc1cc(NC(=O)CSc2nc(-c3cccs3)nc3ccccc23)no1,,inactive: -3.68%
N#CC1(c2nc3ccccc3[nH]2)CC1c1ccc2c(c1)OCO2 (stereo unspecified),"inconclusive: 1.3 µM [activator, full curve, poor fit]",
O=C(/C=C/c1ccc2c(c1)OCO2)NCC1CCCO1 (stereo unspecified),"inconclusive: 10.3 µM [activator, partial curve]",
COc1ccc(NCc2cc3cc4c(cc3n(CC(=O)Nc3ccccc3)c2=O)OCO4)cc1,"inconclusive: 29.1 µM [activator, single point]",
Cc1csc(NC(=O)C2CC(=O)N(Cc3ccco3)C2)n1 (stereo unspecified),"inconclusive: 23.1 µM [activator, single point]",
O=C1N[C@@H](Cc2ccccc2)COC(=O)[C@@H](Cc2ccc(F)cc2)C/C=C\C[C@@H]1CC(=O)N(CCO)Cc1ccccc1,"inconclusive: 25.9 µM [falling, single point]",
O=C(CSC(=S)N1CCCC1)c1ccccc1,"inconclusive: 2.31 µM [activator, full curve]",
CCOc1ccc(N2CC(C(=O)Nc3ccccn3)CC2=O)cc1 (stereo unspecified),"inconclusive: 29.1 µM [activator, single point]",
COC(=O)C1=C(C)N(c2ccc(OC)c(OC)c2)C(=O)/C1=C\c1ccco1,,inactive: -14.1%
Clc1ccccc1CSc1cnnc2ccccc12,"inconclusive: 14.6 µM [activator, single point]",
O=C(CCCn1c(=O)[nH]c2ccsc2c1=O)N1CCN(c2cccc(C(F)(F)F)c2)CC1,,inactive: -12.9% [at 9.27 µM]
O=[N+]([O-])c1ccc(/C=N/Nc2ncccc2[N+](=O)[O-])s1,"inconclusive: 2.31 µM [falling, full curve, poor fit]",
CSc1ccc(/C=C(\C(=O)O)c2ccc(S(=O)(=O)N3CCCCC3)s2)cc1,"inconclusive: 2.59 µM [falling, full curve, poor fit]",

SMILES,Potency,"activity change, negative = inhibition"
COc1ccc(CN2CCN(C(=O)c3ccc(S(=O)(=O)N4CCCCCC4)cc3)CC2)cc1,"inconclusive: 20.6 µM [falling, single point]",
O=C(Nc1ccccc1C(=O)O)c1ccc(NC(=O)C2CCCCC2)cc1,,inactive: -6.5%
COc1cccc(NC(=O)Nc2nc(-c3ccc(OC)c(OC)c3)cs2)c1,active: 7.31 µM,
CC(C)C[C@H](N)c1nnc(S(=O)(=O)Cc2cccc(F)c2)o1,"inconclusive: 25.9 µM [falling, partial curve, poor fit]",
O=C(CSc1cccc(C(F)(F)F)c1)N1CCN(S(=O)(=O)c2ccccc2)CC1,"inconclusive: 29.1 µM [falling, single point]",
CCNc1nc(NC(C)CC)nc(Oc2ccc(OCC)nn2)n1 (stereo unspecified),"inconclusive: 0.0184 µM [falling, full curve, poor fit]",
CN(CCC#N)C(=O)COC(=O)c1c2c(nc3ccccc13)/C(=C/c1ccco1)CC2,,inactive: 11.6%
O=[N+]([O-])c1ccc(C=NNC(=S)Nc2ccc(F)cc2)cc1,"inconclusive: 0.651 µM [activator, partial curve, poor fit]",
COc1ccc(NC2=CC(=O)CC(c3ccc(C)cc3)C2)c(OC)c1 (stereo unspecified),"inconclusive: 20.6 µM [falling, partial curve, poor fit]",
Clc1ccc(OCc2cn3ccccc3n2)c2ncccc12,"inconclusive: 10.3 µM [activator, partial curve]",
c1cc(-c2nsc(-c3ccncc3)n2)ccn1,"inconclusive: 29.1 µM [activator, single point]",
O=C(Nc1ccc(NC(=S)NC(=O)c2ccccc2F)cc1)c1cccs1,"inconclusive: 23.1 µM [falling, single point]",
N#Cc1ccc(-c2ccccc2)nc1SCC(=O)c1cc2ccccc2oc1=O,"inconclusive: 29.1 µM [falling, single point]",
Cc1cccc(Nc2nc(NC(C)C)nc(Oc3ccc(=O)n(C)n3)n2)c1,"inconclusive: 1.03 µM [falling, full curve, poor fit]",
O=C(CSc1nc(-c2ccccc2)c(-c2ccccc2)[nH]1)Nc1nccs1,"inconclusive: 8.2 µM [falling, partial curve, poor fit]",
COc1ccc(N2CCN(C(=O)COC(=O)c3oc4ccc(OC)cc4c3C)CC2)cc1,,inactive: 7.92%
COc1ccc(C(C(=O)NC2CCCC2)N(C(=O)c2ccoc2C)c2ccc(C)c(C)c2)cc1 (stereo unspecified),"inconclusive: 29.1 µM [activator, single point]",
O=C(CN1CCN(Cc2ccccc2F)CC1)Nc1ccccc1Cl,,inactive: 2.61%
CCOc1ccc2nc(NC(=O)c3ccoc3C)sc2c1,"inconclusive: 1.16 µM [activator, partial curve]",
CCOc1ccc(NC(=O)Cn2nnc(C(=O)NCc3ccccc3OC)c2N)cc1,"inconclusive: 32.6 µM [falling, single point]",
Cc1ccc(N2CCN(S(=O)(=O)c3ccc4c(c3)CC(=O)N4)CC2)cc1,,inactive: 14.2% [at 92.2 µM]
CC1c2ccccc2-c2ccccc2N1C (stereo unspecified),"inconclusive: 18.4 µM [falling, partial curve, poor fit]",

# Reformatted with tabs: part of the list above
SMILES	Potency	activity change, negative = inhibition
CCOc1ccc2nc(NC(=O)c3ccoc3C)sc2c1	inconclusive: 1.16 µM [activator, partial curve]	
CCOc1ccc(NC(=O)Cn2nnc(C(=O)NCc3ccccc3OC)c2N)cc1	inconclusive: 32.6 µM [falling, single point]	
